The record followed here is paper PMC3189238.

Chains of the proteins cited; added tags and fusions are not shown. Lines headed by an entry give the natural chain unless they say otherwise; changes in a name come on top.
UniProt P10909: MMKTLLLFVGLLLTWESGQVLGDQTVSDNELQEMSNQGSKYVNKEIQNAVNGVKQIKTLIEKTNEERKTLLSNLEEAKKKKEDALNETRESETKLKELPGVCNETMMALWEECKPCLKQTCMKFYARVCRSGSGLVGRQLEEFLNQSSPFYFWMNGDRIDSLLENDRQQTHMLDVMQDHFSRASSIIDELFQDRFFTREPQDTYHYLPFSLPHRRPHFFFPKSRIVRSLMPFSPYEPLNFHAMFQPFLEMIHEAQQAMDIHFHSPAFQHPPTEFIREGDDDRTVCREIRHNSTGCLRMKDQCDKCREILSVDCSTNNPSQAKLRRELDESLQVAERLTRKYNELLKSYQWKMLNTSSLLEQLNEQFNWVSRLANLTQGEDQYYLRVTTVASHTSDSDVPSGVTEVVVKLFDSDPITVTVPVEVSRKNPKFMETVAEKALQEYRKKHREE
UniProt P02730: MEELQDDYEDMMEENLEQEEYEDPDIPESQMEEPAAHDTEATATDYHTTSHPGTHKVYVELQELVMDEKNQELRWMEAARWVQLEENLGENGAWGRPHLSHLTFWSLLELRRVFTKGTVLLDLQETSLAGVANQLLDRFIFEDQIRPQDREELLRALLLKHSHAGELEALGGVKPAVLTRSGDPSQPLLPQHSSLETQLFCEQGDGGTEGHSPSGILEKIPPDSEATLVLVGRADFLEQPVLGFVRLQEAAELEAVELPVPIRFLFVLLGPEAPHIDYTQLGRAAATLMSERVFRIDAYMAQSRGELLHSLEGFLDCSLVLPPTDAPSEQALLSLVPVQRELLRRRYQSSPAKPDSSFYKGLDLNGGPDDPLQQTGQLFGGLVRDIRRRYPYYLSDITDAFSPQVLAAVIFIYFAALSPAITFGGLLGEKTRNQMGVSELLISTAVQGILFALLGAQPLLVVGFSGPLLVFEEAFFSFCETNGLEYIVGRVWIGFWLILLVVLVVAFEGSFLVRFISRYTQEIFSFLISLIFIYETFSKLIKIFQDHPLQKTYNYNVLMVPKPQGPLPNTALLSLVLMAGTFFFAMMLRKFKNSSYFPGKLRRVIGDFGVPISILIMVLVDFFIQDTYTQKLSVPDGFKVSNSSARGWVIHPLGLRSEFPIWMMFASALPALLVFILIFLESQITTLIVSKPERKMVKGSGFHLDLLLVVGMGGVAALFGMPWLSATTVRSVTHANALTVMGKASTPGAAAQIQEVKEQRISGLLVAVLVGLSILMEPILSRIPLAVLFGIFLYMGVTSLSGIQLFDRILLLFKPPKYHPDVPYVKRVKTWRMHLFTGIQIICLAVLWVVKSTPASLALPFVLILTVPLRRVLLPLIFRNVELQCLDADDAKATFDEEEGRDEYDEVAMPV

Holding throughout (test): co-IP; purified RBC membranes of healthy subjects (1 mg protein) lysed in NP-40 buffer (50 mM Tris-HCl pH 8.0, 150 mM NaCl, 1% NP-40); antibodies against sCLU, Band 3, stomatin or normal serum, 2 h at 4°C, Protein-G Sepharose; immunoblot under reducing conditions
Background: Immunoblotting shows a protein as a band on a membrane.

Assay [1] concerns the target Secretory Apolipoprotein J/Clusterin (human (endogenous in RBCs)) (UniProt P10909).
Assay [2] addresses Band 3 (human (endogenous in RBCs)) (UniProt P02730).
Assay [3] concerns the target T1, stomatin (human (endogenous in RBCs)) (UniProt P27105).
T1 sequence: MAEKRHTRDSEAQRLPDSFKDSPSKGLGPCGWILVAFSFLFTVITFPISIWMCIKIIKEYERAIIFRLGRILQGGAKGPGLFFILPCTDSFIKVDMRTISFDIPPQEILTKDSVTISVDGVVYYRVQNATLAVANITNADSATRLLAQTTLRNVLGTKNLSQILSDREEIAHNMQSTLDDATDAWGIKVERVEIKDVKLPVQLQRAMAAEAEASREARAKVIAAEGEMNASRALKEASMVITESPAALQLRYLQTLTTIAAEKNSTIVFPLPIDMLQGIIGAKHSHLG

Results are given in words; binding and its absence hold for the method and conditions named. Binding seen in cells or lysates may run through a third protein. Some results given as binding are weak or reduced against the parent protein; the word gives no strength.

Band 3 (from UniProt P02730 1-911): the binding result in assay [1] is “binds”.

With “Secretory Apolipoprotein J/Clusterin (from UniProt P10909-1 23-227; P10909-1 228-449)”, the values for the binding entry in assay [2] and in assay [3] were “binds” and “no binding”, respectively.

B1: CD59 (protein, UniProt P13987 26-102)
chain: LQCYNCPNPTADCKTAVNCSSDFDACLITKAGLQVYNKCWKFEHCNFNDVTTRLRENELTYYCCKKDLCNFNEQLEN
For B1, the binding result in assay [1] is “binds”.
